Measurements published in publication PMC12311210.
Results are given in words; binding and its absence hold for the method and conditions named. Binding seen in cells or lysates may run through a third protein. Some entries that bind do so weakly or less than the wild type.

The chains behind the UniProt entries cited, without tags or fusion partners.
UniProt Q07666: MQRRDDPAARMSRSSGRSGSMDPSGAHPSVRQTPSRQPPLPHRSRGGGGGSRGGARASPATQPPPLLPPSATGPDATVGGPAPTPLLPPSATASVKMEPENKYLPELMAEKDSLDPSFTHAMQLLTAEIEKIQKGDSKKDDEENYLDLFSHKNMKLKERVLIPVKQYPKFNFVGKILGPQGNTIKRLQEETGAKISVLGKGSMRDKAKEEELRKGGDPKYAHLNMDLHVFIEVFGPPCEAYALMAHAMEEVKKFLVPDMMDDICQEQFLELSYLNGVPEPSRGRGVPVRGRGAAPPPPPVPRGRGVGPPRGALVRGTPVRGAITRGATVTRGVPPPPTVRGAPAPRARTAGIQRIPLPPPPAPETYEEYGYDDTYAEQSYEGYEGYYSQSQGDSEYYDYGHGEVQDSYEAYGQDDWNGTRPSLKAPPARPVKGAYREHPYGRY
UniProt P17844: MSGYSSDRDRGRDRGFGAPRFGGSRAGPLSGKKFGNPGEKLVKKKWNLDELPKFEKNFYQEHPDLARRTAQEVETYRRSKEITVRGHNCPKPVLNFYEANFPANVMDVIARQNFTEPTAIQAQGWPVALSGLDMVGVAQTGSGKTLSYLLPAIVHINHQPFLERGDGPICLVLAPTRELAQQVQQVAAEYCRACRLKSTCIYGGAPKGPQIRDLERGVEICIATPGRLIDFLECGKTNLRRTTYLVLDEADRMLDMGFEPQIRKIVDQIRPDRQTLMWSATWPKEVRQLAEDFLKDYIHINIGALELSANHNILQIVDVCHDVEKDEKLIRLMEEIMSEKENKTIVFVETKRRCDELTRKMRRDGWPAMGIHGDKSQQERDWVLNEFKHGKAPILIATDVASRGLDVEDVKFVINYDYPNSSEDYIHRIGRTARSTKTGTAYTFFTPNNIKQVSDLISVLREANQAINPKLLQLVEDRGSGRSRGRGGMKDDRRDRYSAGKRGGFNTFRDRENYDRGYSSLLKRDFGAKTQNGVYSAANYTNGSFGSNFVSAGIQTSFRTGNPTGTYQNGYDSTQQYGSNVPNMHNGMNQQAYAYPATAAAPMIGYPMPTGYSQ

Columns and labels:
[1] = biological target: KHDRBS1 (KH domain-containing RNA-binding protein 1) (human (endogenous in HeLa)) (UniProt Q07666); experiment: cross-linking; HeLa cells (1 x 10^6) incubated with 10 µg/mL F1, F3 or P3 in PBS at 37 °C for 45 min, homogenised, protein 2.5 mg/mL; cross-linked with 10-fold molar excess of dimethyl suberimidate (DMS) in 0.2 M triethanolamine pH 8.0, room temperature, 45 min; tryptic digest, LC-MS/MS, pLink2, 1% FDR on peptide level; only the binder purified
[2] = biological target: DDX5 (DEAD-box helicase 5) (human (endogenous in HeLa)) (UniProt P17844); experiment: as above

Row | Binder | binding [1] | binding [2]
1 | GLLSVLGSVAKHVLPHVVPVIAEHL (C-terminal amide (-NH2)) [Caerin 1.1] | binds | 
2 | GLFGVLGSIAKHVLPHVVPVIAEKL (C-terminal amide (-NH2)) [Caerin 1.9] |  | binds
3 | GTELPSPPSVWFEAEFK [control peptide P3] | no binding (tested: 10 µg/mL) | no binding (tested: 10 µg/mL)
